# The other results are listed elsewhere or left out.
# Protein sequences, listed by entry. Tags and fused reporters are not part of them. Lines headed by an entry give the natural chain unless they say otherwise; changes in a name come on top.
# UniProt P51812, whole entry, looked up: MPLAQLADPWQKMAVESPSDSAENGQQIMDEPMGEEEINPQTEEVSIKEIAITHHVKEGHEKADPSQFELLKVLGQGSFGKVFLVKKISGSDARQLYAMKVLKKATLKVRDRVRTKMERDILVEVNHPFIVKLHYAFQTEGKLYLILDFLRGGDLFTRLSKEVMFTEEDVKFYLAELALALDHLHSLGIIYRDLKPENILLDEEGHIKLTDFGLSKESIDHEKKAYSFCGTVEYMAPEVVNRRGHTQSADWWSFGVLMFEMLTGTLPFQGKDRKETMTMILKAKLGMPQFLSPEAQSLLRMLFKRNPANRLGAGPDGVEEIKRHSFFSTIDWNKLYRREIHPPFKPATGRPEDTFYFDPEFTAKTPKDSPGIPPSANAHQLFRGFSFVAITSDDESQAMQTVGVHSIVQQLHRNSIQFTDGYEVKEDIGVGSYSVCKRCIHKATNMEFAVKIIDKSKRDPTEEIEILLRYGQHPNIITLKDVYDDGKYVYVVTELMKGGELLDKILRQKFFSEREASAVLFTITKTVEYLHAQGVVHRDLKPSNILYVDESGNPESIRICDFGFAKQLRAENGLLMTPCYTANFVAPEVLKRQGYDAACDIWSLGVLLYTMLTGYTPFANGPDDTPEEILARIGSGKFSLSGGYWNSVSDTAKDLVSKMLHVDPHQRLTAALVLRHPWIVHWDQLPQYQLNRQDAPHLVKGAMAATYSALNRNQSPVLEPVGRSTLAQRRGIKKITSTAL
# UniProt Q9HB90, whole entry, looked up: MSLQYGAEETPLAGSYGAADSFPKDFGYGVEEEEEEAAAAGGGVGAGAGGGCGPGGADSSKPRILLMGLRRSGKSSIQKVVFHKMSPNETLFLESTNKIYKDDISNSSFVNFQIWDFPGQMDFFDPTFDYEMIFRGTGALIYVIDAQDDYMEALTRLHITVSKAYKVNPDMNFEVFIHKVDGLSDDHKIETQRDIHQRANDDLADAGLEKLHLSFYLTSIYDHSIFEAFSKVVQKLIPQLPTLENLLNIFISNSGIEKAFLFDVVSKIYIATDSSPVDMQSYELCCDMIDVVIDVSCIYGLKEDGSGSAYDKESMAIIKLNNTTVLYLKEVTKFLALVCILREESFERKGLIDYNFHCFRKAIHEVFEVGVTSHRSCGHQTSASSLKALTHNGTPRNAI
# UniProt P78345: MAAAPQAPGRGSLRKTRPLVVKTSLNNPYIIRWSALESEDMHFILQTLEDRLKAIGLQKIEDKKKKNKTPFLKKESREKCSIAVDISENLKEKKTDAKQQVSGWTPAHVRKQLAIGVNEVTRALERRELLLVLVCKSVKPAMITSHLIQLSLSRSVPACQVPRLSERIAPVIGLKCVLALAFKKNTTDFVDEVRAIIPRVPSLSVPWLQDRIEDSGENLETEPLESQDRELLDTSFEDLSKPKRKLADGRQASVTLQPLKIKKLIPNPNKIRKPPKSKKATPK
# UniProt Q92622: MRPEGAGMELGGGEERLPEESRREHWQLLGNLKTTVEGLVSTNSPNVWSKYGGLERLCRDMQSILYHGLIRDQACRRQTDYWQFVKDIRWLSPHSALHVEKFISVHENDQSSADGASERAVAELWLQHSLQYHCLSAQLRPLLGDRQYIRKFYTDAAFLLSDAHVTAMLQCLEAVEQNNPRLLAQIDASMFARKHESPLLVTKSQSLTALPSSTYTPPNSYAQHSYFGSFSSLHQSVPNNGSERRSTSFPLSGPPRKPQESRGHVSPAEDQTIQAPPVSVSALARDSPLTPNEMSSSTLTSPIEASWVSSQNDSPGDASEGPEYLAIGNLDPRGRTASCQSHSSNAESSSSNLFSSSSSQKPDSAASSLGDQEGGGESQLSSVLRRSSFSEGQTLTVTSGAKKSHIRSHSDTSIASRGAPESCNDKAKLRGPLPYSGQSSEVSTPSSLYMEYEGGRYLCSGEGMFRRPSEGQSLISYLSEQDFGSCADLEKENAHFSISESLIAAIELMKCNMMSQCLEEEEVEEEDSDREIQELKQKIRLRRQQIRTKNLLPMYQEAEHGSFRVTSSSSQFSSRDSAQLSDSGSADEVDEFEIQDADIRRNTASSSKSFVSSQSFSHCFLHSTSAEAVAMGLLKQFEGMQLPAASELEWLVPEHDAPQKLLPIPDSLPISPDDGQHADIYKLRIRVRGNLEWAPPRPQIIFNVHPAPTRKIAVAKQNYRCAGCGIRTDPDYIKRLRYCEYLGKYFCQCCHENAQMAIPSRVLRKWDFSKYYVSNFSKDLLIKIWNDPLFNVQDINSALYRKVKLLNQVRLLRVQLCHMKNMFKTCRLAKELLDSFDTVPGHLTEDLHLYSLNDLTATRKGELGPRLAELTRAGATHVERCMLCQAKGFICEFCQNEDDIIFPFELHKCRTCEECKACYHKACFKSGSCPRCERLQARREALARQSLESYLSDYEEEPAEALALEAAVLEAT
# UniProt Q96IZ7: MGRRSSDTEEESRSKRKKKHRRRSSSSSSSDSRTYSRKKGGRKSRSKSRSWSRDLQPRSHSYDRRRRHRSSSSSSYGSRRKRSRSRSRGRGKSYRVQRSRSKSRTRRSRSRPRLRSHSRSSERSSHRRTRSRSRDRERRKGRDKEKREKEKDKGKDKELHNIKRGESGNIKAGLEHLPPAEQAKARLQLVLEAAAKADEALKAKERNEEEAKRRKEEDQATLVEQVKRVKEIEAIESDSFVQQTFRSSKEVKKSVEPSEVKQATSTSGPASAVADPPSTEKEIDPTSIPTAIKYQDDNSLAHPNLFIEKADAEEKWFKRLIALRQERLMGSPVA
# UniProt Q9NQC3: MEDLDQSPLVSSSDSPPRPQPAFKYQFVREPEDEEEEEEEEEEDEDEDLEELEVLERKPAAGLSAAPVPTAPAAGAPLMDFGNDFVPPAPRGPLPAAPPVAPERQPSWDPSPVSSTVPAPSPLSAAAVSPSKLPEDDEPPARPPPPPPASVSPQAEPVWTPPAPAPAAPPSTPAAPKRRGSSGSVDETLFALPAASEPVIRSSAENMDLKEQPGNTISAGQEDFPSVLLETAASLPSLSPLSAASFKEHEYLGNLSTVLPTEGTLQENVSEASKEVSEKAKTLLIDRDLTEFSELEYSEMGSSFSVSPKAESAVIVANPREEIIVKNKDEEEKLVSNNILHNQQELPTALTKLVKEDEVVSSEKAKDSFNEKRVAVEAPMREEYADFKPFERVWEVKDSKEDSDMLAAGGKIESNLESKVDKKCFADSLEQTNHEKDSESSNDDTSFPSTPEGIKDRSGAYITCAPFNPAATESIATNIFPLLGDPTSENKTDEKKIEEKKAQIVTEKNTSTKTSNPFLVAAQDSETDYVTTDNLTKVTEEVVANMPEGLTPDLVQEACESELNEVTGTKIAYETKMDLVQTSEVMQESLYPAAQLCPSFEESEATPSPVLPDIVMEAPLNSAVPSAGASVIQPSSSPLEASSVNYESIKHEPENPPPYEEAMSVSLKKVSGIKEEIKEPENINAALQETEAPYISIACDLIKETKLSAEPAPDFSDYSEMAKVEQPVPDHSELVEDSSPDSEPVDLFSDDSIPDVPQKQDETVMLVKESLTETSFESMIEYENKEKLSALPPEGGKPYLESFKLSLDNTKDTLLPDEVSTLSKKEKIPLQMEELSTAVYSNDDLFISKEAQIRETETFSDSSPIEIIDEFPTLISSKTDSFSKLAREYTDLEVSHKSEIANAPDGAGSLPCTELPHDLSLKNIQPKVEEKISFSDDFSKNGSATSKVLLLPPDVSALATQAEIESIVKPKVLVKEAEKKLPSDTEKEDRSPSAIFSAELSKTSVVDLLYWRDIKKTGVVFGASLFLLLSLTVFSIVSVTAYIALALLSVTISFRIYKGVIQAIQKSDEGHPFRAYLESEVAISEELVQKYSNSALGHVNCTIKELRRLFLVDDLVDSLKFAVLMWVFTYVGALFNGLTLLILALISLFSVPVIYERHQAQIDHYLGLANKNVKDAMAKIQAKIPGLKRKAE
# UniProt O75818: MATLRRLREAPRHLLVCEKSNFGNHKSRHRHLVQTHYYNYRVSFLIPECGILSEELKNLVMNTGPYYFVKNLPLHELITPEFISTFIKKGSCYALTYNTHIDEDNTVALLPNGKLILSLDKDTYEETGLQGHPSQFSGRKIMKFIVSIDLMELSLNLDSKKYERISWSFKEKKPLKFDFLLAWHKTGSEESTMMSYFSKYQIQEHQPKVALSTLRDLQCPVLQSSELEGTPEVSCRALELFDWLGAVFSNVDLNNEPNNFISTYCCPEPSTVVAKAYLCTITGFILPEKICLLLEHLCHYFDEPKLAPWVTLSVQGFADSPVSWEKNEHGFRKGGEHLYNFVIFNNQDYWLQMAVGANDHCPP
# UniProt Q9Y265, whole entry, looked up: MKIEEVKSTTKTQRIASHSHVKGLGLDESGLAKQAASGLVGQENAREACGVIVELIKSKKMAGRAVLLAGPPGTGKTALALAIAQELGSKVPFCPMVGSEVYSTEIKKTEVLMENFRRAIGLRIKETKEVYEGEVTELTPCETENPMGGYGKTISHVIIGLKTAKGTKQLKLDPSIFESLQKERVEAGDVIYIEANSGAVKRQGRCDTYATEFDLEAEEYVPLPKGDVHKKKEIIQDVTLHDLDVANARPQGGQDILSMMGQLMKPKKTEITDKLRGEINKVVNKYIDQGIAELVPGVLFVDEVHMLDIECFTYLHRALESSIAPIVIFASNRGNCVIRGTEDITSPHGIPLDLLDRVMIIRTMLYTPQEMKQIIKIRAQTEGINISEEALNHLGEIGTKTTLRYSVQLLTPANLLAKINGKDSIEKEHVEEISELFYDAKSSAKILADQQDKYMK
# UniProt O75298: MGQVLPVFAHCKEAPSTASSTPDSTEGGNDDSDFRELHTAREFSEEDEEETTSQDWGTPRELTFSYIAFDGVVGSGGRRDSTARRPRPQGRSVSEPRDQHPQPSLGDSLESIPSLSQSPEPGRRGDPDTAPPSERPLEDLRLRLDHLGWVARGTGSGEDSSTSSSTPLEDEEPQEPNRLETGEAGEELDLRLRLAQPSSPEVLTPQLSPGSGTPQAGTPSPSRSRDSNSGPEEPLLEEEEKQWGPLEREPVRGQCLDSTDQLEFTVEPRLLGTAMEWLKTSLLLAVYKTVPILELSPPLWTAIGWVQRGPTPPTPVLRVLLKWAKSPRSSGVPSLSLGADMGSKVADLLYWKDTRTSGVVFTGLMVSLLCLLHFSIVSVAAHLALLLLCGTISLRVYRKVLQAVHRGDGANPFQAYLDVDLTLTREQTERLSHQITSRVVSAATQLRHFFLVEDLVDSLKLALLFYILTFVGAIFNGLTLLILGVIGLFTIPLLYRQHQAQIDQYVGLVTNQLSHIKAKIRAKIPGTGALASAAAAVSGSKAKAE
# UniProt O43818: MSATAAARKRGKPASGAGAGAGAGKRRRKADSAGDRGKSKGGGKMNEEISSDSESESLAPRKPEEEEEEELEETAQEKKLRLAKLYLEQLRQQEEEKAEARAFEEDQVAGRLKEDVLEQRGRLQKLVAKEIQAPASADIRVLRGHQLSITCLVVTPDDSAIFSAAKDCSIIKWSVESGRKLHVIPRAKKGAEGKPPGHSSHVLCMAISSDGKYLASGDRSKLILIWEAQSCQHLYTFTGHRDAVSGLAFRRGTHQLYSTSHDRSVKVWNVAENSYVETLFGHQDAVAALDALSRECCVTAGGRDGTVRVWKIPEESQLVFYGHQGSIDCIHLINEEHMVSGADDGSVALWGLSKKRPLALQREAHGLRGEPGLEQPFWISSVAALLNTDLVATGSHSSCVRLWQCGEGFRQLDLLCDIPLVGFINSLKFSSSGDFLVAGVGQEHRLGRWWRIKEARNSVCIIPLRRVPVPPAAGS
# UniProt O00442: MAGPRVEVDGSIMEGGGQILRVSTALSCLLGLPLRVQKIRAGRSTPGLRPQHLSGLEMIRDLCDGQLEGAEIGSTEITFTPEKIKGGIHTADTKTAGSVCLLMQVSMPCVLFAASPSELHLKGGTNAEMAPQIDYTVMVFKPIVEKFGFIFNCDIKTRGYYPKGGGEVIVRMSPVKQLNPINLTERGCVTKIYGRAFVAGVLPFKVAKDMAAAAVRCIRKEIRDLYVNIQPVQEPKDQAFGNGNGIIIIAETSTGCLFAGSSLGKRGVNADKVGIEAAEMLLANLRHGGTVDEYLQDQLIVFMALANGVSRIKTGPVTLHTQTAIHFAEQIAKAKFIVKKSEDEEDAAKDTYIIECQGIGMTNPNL
# Legend:
# Assay in all cases: log2 fold change, soluble protein after heating vs DMSO (PISA); higher = thermal stabilisation; K562 lysate, 10 uM; active = over 0.2 and 3.5 SD of the protein, either way, in both replicates (recomputed)
# ibrutinib = compound: C=CC(=O)N1CCC[C@@H](n2nc(-c3ccc(Oc4ccccc4)cc3)c3c(N)ncnc32)C1 [ibrutinib]
# Procedure, shortened: (§1)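 Thermal stability, expressed as log-two fold change relative to solvent controls, is given from duplicates. Crude K562 extract in PBS pH 7.4 with 1 mM MgCl2, at 1 mg/mL protein, was treated with 10 μM compound for 30 min and heated in aliquots for 3 min across 48°C-58°C. After pooling, adjustment to 0.5% NP-40 at 4°C and centrifugation at 21,000xg for 90 min, supernatant protein was measured by TMTpro 16plex LC-MS/MS with channel sums equalised.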
# [1] = compound: CC(=O)c1cnc2ccc(-c3cc(Cl)c(O)c(Cl)c3)nc2c1N[C@H]1CC[C@H](CN(C)C)CC1
# Procedure, shortened: as §1
# ralimetinib = compound: CC(C)(C)Cn1c(N)nc2ccc(-c3[nH]c(C(C)(C)C)nc3-c3ccc(F)cc3)nc21 [ralimetinib]
# Procedure, shortened: as §1
# [2] = compound: CC(C)(O)CC(=O)NCCn1ccc2ncnc(Nc3ccc(Oc4cccc(C(F)(F)F)c4)c(Cl)c3)c21
# Procedure, shortened: as §1
# [3] = compound: CC(C)C1=C2N=C(C=C(N2N=C1)NCC3=CC=CC=C3)NCCCCCCN
# Procedure, shortened: as §1
# [4] = compound: CC1=C(C(CC(=O)N1)C2=CC=C(C=C2)C(F)(F)F)C(=O)NC3=C(C=C4C(=C3)C=NN4)F
# Procedure, shortened: as §1
# [5] = compound: CC1=C(C2=C(C=C1)C(=O)C3=CC=CC=C3N2CCCN)C
# Procedure, shortened: as §1
# [6] = compound: CC1=C(C=C(C=C1)NC(=O)C2=CC(=CC=C2)C(C)(C)C#N)NC3=CC4=C(C=C3)N=CN(C4=O)C
# Procedure, shortened: as §1
# [7] = compound: CC1=C(C=C(C=C1)NC(=O)C2=CC(=CC=C2)N(C)C)NC(=O)C3=CC=C(C=C3)O
# Procedure, shortened: as §1
# [8] = compound: CC1=CC=C(C=C1)SC2=C3C=C(SC3=CN=C2)C(=O)N
# Procedure, shortened: as §1
Target,log2 fold change (ibrutinib),log2 fold change [1],log2 fold change (ralimetinib),log2 fold change [2],log2 fold change [3],log2 fold change [4],log2 fold change [5],log2 fold change [6],log2 fold change [7],log2 fold change [8]
RPS15 (UniProt P62841),inactive: 0.033,inactive: -0.013,inactive: 0.065,inactive: -0.064,inactive: 0.004,inactive: -0.005,inactive: -0.066,inactive: 0.021,inactive: 0.028,inactive: 0.032
RPS6KA3 (UniProt P51812),inactive: -0.04,active: 0.56,inactive: -0.004,inactive: -0.032,inactive: -0.11,inactive: -0.043,inactive: -0.02,inactive: -0.061,inactive: 0.006,inactive: -0.039
RRAGC (UniProt Q9HB90),inactive: -0.014,inactive: 0.014,inactive: -0.004,inactive: -0.046,inactive: 0,inactive: 0.019,inactive: 0.038,inactive: 0.019,inactive: -0.016,inactive: -0.011
RPS15A (UniProt P62244),inactive: -0.032,inactive: 0.011,inactive: 0.036,inactive: 0.011,inactive: -0.006,inactive: -0.003,inactive: -0.071,inactive: -0.036,inactive: -0.018,inactive: 0.016
RPP38 (UniProt P78345),inactive: -0.006,inactive: -0.006,inactive: -0.01,inactive: -0.033,inactive: -0.022,inactive: -0.021,inactive: 0.004,inactive: 0.012,inactive: 0.011,inactive: -0.021
RPS10 (UniProt P46783),inactive: 0.023,inactive: -0.008,inactive: 0.001,inactive: -0.004,inactive: 0.002,inactive: -0.004,inactive: -0.05,inactive: -0.007,inactive: 0.006,inactive: 0.004
RPL38 (UniProt P63173),inactive: -0.014,inactive: -0.013,inactive: -0.028,inactive: -0.034,inactive: 0.011,inactive: -0.015,inactive: 0,inactive: -0.004,inactive: -0.007,inactive: 0.006
RPL9 (UniProt P32969),inactive: -0.018,inactive: 0.007,inactive: 0.027,inactive: 0.007,inactive: 0.035,inactive: 0.01,inactive: -0.013,inactive: -0.008,inactive: 0.01,inactive: 0.017
RUBCN (UniProt Q92622),inactive: 0.056,inactive: -0.184,inactive: -0.039,inactive: -0.138,inactive: 0.031,inactive: -0.101,inactive: 0.046,inactive: -0.024,inactive: 0.002,inactive: -0.185
RPLP0 (UniProt P05388),inactive: 0.003,inactive: -0.019,inactive: -0.007,inactive: -0.019,inactive: -0.016,inactive: -0.016,inactive: -0.045,inactive: 0.032,inactive: -0.005,inactive: 0.001
RPS3 (UniProt P23396),inactive: 0.006,inactive: 0.004,inactive: 0.022,inactive: 0.008,inactive: -0.006,inactive: -0.031,inactive: -0.053,inactive: -0.002,inactive: -0.007,inactive: 0.028
RPS29 (UniProt P62273),inactive: 0.002,inactive: 0.025,inactive: -0.138,inactive: 0.03,inactive: -0.109,inactive: 0.086,inactive: -0.093,inactive: -0.108,inactive: -0.068,inactive: 0.058
RPS27L (UniProt Q71UM5),inactive: 0.062,inactive: 0.021,inactive: 0.02,inactive: 0.011,inactive: -0.008,inactive: 0.031,inactive: -0.049,inactive: 0.007,inactive: -0.049,inactive: 0.067
RSRC1 (UniProt Q96IZ7),inactive: 0.033,inactive: 0.02,inactive: 0.035,inactive: -0.013,inactive: 0.001,inactive: -0.08,inactive: -0.079,inactive: 0.011,inactive: 0.028,inactive: -0.008
RPL8 (UniProt P62917),inactive: 0.031,inactive: 0.007,inactive: 0.01,inactive: -0.002,inactive: -0.008,inactive: 0.012,inactive: -0.045,inactive: -0.076,inactive: -0.013,inactive: 0.011
RPL5 (UniProt P46777),inactive: -0.021,inactive: 0.004,inactive: 0.003,inactive: -0.024,inactive: 0.009,inactive: -0.013,inactive: -0.1,inactive: -0.003,inactive: -0.005,inactive: 0.041
RPS21 (UniProt P63220),inactive: -0.002,inactive: 0.018,inactive: 0.015,inactive: 0.012,inactive: -0.025,inactive: -0.075,inactive: 0.053,inactive: -0.021,inactive: -0.013,inactive: 0.001
RTN4 isoform 2 (UniProt Q9NQC3),inactive: -0.017,inactive: 0.013,inactive: 0.046,inactive: -0.016,inactive: -0.019,inactive: -0.025,inactive: -0.045,inactive: 0.024,inactive: -0.033,inactive: -0.001
RPS16 (UniProt P62249),inactive: 0.002,inactive: 0.006,inactive: -0.087,inactive: 0.01,inactive: -0.01,inactive: -0.011,inactive: -0.061,inactive: -0.033,inactive: -0.052,inactive: 0.04
RPS11 (UniProt P62280),inactive: -0.065,inactive: -0.019,inactive: -0.028,inactive: 0.022,inactive: -0.006,inactive: -0.027,inactive: -0.077,inactive: -0.039,inactive: 0.005,inactive: 0.035
RPS20 isoform 2 (UniProt P60866),inactive: -0.02,inactive: -0.008,inactive: 0.001,inactive: -0.008,inactive: -0.006,inactive: -0.006,inactive: -0.012,inactive: 0.041,inactive: -0.019,inactive: 0.038
RPP40 (UniProt O75818),inactive: 0.003,inactive: 0.007,inactive: 0.023,inactive: 0.019,inactive: -0.029,inactive: 0.007,inactive: -0.005,inactive: -0.009,inactive: -0.02,inactive: 0.004
RPS27 (UniProt P42677),inactive: -0.011,inactive: 0.013,inactive: 0.088,inactive: -0.011,inactive: 0.031,inactive: -0.007,inactive: -0.108,inactive: 0.011,inactive: -0.08,inactive: 0.05
RPS13 (UniProt P62277),inactive: 0.013,inactive: 0.024,inactive: 0.02,inactive: 0.022,inactive: -0.026,inactive: -0.032,inactive: -0.069,inactive: -0.022,inactive: -0.035,inactive: 0.062
RTF1 (UniProt Q92541),inactive: -0.028,inactive: 0.004,inactive: 0.005,inactive: 0.011,inactive: 0.01,inactive: 0,inactive: 0.004,inactive: -0.02,inactive: 0.006,inactive: -0.008
RUVBL1 (UniProt Q9Y265),inactive: 0.001,inactive: 0.004,inactive: -0.008,inactive: 0.003,inactive: 0.003,inactive: -0.004,inactive: -0.01,inactive: -0.005,inactive: -0.02,inactive: 0.011
RTN2 (UniProt O75298),inactive: -0.048,inactive: 0.023,inactive: 0.049,inactive: 0,inactive: -0.014,inactive: 0.089,inactive: 0.072,inactive: -0.04,inactive: 0.035,inactive: 0.026
RRP9 (UniProt O43818),inactive: -0.035,inactive: -0.007,inactive: -0.017,inactive: -0.065,inactive: 0.002,inactive: -0.007,inactive: -0.02,inactive: 0.002,inactive: -0.013,inactive: -0.027
RTCA (UniProt O00442),inactive: 0.005,inactive: -0.001,inactive: 0.021,inactive: -0.04,inactive: 0.016,inactive: -0.018,inactive: 0.005,inactive: 0.047,inactive: 0.012,inactive: -0.008
RPS14 (UniProt P62263),inactive: -0.003,inactive: -0.016,inactive: 0.011,inactive: -0.021,inactive: 0.004,inactive: 0.001,inactive: -0.084,inactive: -0.022,inactive: 0.009,inactive: 0.018

# Just log2 fold change [6], for some of the entries so far:
Target | log2 fold change [6]
RSRC1 (UniProt Q96IZ7) | inactive: 0.011
RPL8 (UniProt P62917) | inactive: -0.076

# In a second layout: entries from further up
Target	log2 fold change (ibrutinib)	log2 fold change [1]	log2 fold change (ralimetinib)	log2 fold change [2]	log2 fold change [3]	log2 fold change [4]	log2 fold change [5]	log2 fold change [6]	log2 fold change [7]	log2 fold change [8]
RPL5 (UniProt P46777)	inactive: -0.021	inactive: 0.004	inactive: 0.003	inactive: -0.024	inactive: 0.009	inactive: -0.013	inactive: -0.1	inactive: -0.003	inactive: -0.005	inactive: 0.041
RPS21 (UniProt P63220)	inactive: -0.002	inactive: 0.018	inactive: 0.015	inactive: 0.012	inactive: -0.025	inactive: -0.075	inactive: 0.053	inactive: -0.021	inactive: -0.013	inactive: 0.001
